According to PubChem BioAssay AID2685 (National Center for Advancing Translational Sciences (NCATS), 2010):
This is one part of the list. Further columns of the screen follow, without active or inactive calls. The list favours compounds with an active or inconclusive main result. The note in brackets gives the kind of curve behind each potency; many fits are weak.

Assay: qHTS Assay for Lipid Storage Modulators in Drosophila S3 Cells;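 for cell number change: cells counted by Cell Tracker Red CMTPX staining in the red channel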
Conditions: BODIPY lipid droplet fluorescence, 18-24 h; for cell number change: measured here: cell count max response, cells fed with added oleic acid
How it was run: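 Drosophila S3 cells got compounds at several concentrations plus oleic acid (400 uM solution). Laser-scanning cytometry with 488 nm excitation read lipid droplets at 500-530 nm and cells at 575-640 nm. Percent activity was relative to 20 uM Triacsin C.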

[1] = measured here: cell number channel AC50, cells fed with added oleic acid
[2] = measured here: lipid fluorescence (Fed channel) AC50, cells fed with added oleic acid

SMILES	cell number change [%]	AC50 [1]	AC50 [2]
O=C(Nc1nnc(-c2ccccc2)o1)c1cc(Cl)sc1Cl	-33.3	0.164 µM [falling, full curve, poor fit]	–
COc1ccc(C(=O)NNC(=O)Cc2ccc([N+](=O)[O-])cc2)cc1	17.4	–	16.4 µM [rising, partial curve, poor fit]
Cc1cc2nc(N=C(N)N)nc(C)c2cc1C	43.5	16.4 µM [rising, single point]	–
COc1ccc(S(=O)(=O)N(C)C)cc1NC(=O)CCNC(=O)c1ccco1	18.5	–	0.231 µM [rising, full curve, poor fit]
COC(=O)Cc1cc(OC)c(OC)cc1S(=O)(=O)N(C)C	-46.5	0.58 µM [falling, full curve, poor fit]	–
C=CCN1C(=O)c2ccc(C(=O)N(CC(C)C)c3c(N)n(CCCC)c(=O)[nH]c3=O)cc2C1=O	2.01	–	–
O=C(Cn1c(=O)oc2ccccc21)N1CCOCC1	-9.87	–	0.0259 µM [falling, full curve, poor fit]
CN1CCN(C(c2ccc(C(F)(F)F)cc2)c2cc(Cl)c3cccnc3c2O)CC1 (configuration not stated)	11.3	–	29.1 µM [falling, single point]
CCCC1(C(=O)OCC)NC(c2ccc(O)cc2)C2C(=O)N(c3cccc(C(C)=O)c3)C(=O)C21 (configuration not stated)	-10.3	–	29.1 µM [rising, single point]
COc1ccc([N+](=O)[O-])cc1NC(=O)c1cncc(Br)c1	-74.2	29.1 µM [falling, single point]	–
O=C1CCN(Cc2cccnc2)CCN1[C@H](CO)Cc1ccccc1	26	0.461 µM [rising, full curve, poor fit]	0.58 µM [rising, single point]
CCOc1ccccc1NC(=O)c1ccc2c(c1)C(=O)N(CC1CCCO1)C2=O (configuration not stated)	–	–	29.1 µM [falling, single point]
CCOc1ccccc1N(C(=O)c1snc(C(N)=O)c1N)C(C(=O)NC1CCCC1)c1cccs1 (configuration not stated)	-22.9	–	29.1 µM [falling, single point]
COc1cc(C(=O)NCc2ccc(-c3nc4ccccc4o3)cc2)cc(OC)c1OC	–	6.51 µM [falling, single point]	–
COc1ccccc1C(=O)NCC(=O)OC(C)C(=O)NC1CCCCC1C (configuration not stated)	-13.2	–	6.51 µM [falling, partial curve]
COC(=O)c1cccc(NC(=O)CSc2nncn2-c2ccccn2)c1	-7.39	–	29.1 µM [falling, single point]
CN(C)c1ccc(N=C/C=C2\N(C)c3ccccc3C2(C)C)cc1	18.7	–	–
O=C(CSc1nnc(-c2ccc(F)cc2)c2ccccc12)NCC1CCCO1 (configuration not stated)	37.6	6.51 µM [rising, single point]	6.51 µM [rising, partial curve, poor fit]
CN(C)CCCOC(=O)c1ccc(Cl)cc1Cl	-15	–	7.31 µM [falling, partial curve, poor fit]

Among those listed so far, 3 contain a Cl atom.
SMILES	cell number change [%]	AC50 [1]	AC50 [2]
O=C(Nc1nnc(-c2ccccc2)o1)c1cc(Cl)sc1Cl	-33.3	0.164 µM [falling, full curve, poor fit]	–
CN1CCN(C(c2ccc(C(F)(F)F)cc2)c2cc(Cl)c3cccnc3c2O)CC1 (configuration not stated)	11.3	–	29.1 µM [falling, single point]
CN(C)CCCOC(=O)c1ccc(Cl)cc1Cl	-15	–	7.31 µM [falling, partial curve, poor fit]

Following part.

SMILES	cell number change [%]	AC50 [1]	AC50 [2]
Cc1ccc(-c2nnc(SCC(=O)N3CCCC3)o2)cc1	-0.0726	–	–
CCOc1nc2cnccc2n(CC(=O)Nc2c(C)cccc2CC)c1=O	2.95	–	6.51 µM [rising, single point]
Cc1c(-c2ccccc2)nc(N)c(C#N)c1-c1cccnc1	10.8	1.64 µM [rising, partial curve]	0.366 µM [rising, partial curve]
O=C(C1CCCN(Cc2cccc(F)c2)C1)N1CCCCC1 (configuration not stated)	-120	25.9 µM [falling, partial curve, poor fit]	20.6 µM [falling, partial curve]
O=C(OCCN1CCCC1)C1(c2ccccc2)CCCC1	3.93	–	0.146 µM [falling, full curve, poor fit]
CC(C)NC(=O)C1CC(=O)N(C(C)c2ccccc2)C1 (configuration not stated)	-30.1	0.146 µM [falling, full curve]	1.46 µM [falling, full curve]
CCOC(=O)[C@H]1[C@H]2COc3ccc(Cl)cc3[C@@H]2N2C(=O)c3cc(C)ccc3NC(=O)[C@@]12C	–	–	0.461 µM [falling, single point]
COc1cccc(NC(=O)c2ccc(S(=O)(=O)N3CCCC3)cc2)c1	-6.67	–	0.206 µM [rising, single point]
COc1cc(C(C(=O)NCc2ccccc2)N(C(=O)c2snc(C(N)=O)c2N)C2CCCC2)cc(OC)c1OC (configuration not stated)	-2.63	–	–
S=C(Nc1ccc(Cl)c(Cl)c1)NC1CCCCC1	-28.8	–	–
Cc1ccccc1NS(=O)(=O)c1ccc(OCC(=O)N2CCCCC2)cc1	52.4	8.2 µM [rising, partial curve]	0.58 µM [rising, single point]
COc1ccc(CNC(=O)N2CCN(c3cccc(Cl)c3)CC2)cc1OC	7.21	–	29.1 µM [rising, partial curve, poor fit]
CCn1c(SCC(=O)c2cc(C)n(C)c2C)nnc1-c1ccccc1	117	4.11 µM [rising, full curve]	8.2 µM [rising, partial curve]
Cc1ccc(-c2nn(-c3ccccc3)cc2C(=O)N2CCOCC2)cc1	20.8	3.66 µM [rising, single point]	–
Cc1ccccc1NN=Nc1nc2c([nH]1)c(=O)n(C)c(=O)n2C	148	6.51 µM [rising, full curve]	0.731 µM [rising, full curve]
COC(=O)c1sccc1NC(=O)c1ccc(OC)cc1	-31.9	2.31 µM [falling, full curve, poor fit]	0.82 µM [rising, single point]
Cc1ccsc1/C=N\NC(=O)c1n[nH]c2c1CCC2	-31.7	29.1 µM [falling, partial curve, poor fit]	0.231 µM [falling, full curve, poor fit]
CC(C)c1onc(C(=O)NCc2ccccc2)c1[N+](=O)[O-]	0.963	6.51 µM [rising, single point]	6.51 µM [rising, single point]
CC(C)C(=O)N1CCN(c2ccccc2NC(=O)c2ccco2)CC1	18.4	0.291 µM [rising, partial curve, poor fit]	–

Full records as entered above:
COc1cc(C(C(=O)NCc2ccccc2)N(C(=O)c2snc(C(N)=O)c2N)C2CCCC2)cc(OC)c1OC (configuration not stated) reads cell number change [%]: -2.63
Cc1ccc(-c2nn(-c3ccccc3)cc2C(=O)N2CCOCC2)cc1 reads cell number change [%]: 20.8; AC50 [1]: 3.66 µM [rising, single point]

(cont.)

SMILES	cell number change [%]	AC50 [1]	AC50 [2]
COC(=O)[C@]1(Cc2ccccc2)N[C@H](c2ccc(-c3cccc(Cl)c3)cc2)[C@@H]2C(=O)N(C)C(=O)[C@@H]21	3.04	2.06 µM [falling, partial curve]	–
COc1cccc(NC(=O)Nc2nnc(Cc3ccccc3F)s2)c1	-33.1	29.1 µM [falling, single point]	–
S=c1[nH]nc(COc2ccccc2)n1/N=C/c1ccc(Cl)c(Cl)c1	-42.7	29.1 µM [falling, single point]	29.1 µM [falling, single point]
Cc1nc(-c2cccc(NC(=O)Cc3ccccc3)c2)cs1	75.5	3.66 µM [rising, full curve]	3.26 µM [rising, partial curve, poor fit]
COC(=O)c1sccc1NC(=S)N1CCN(c2ccccc2)CC1	5.88	–	0.651 µM [rising, full curve, poor fit]
Cc1c(Cl)c(-c2n[nH]c(=S)n2CC(C)C)nn1C	9.87	–	6.51 µM [rising, partial curve]
Cc1ccc(S(=O)(=O)N2CCCCC2)cc1C(=O)NCCc1ccccc1	33.5	11.6 µM [rising, partial curve, poor fit]	–
O=C(COc1ccccc1F)NCC(c1ccc(F)cc1)N1CCOCC1 (configuration not stated)	-20.1	–	2.31 µM [rising, single point]
CCOc1ccccc1NS(=O)(=O)c1ccc(Br)s1	-9.64	–	29.1 µM [rising, single point]
COc1ccc(N(CC(=O)Nc2nccs2)S(=O)(=O)c2c(C)nn(C)c2C)cc1	–	0.731 µM [rising, single point]	1.16 µM [rising, single point]
CC(=O)c1cccc(NC(=O)C(C)OC(=O)/C=C/c2cccs2)c1 (configuration not stated)	12.4	–	–
Cc1cccc(C)c1NC(=O)C(=O)NCCCN1CCOCC1	37.9	32.6 µM [rising, single point]	–
CNC(=O)COC(=O)c1ccc2c(c1)S(=O)(=O)c1ccccc1C2=O	2.25	–	0.58 µM [falling, single point]
COc1ccc(Cl)cc1NC(=O)CN(C)C(=O)c1sccc1-c1ccccc1	-14.9	–	8.2 µM [falling, partial curve, poor fit]
Cc1cc(Nc2ccccc2)nc(N2CCN(C(=O)c3ccc4c(c3)OCO4)CC2)n1	4.21	–	0.146 µM [rising, full curve]
COc1ccc(/C=N/NC(=O)CNC(=O)/C=C/c2ccccc2OC)cc1	5.56	1.84 µM [rising, partial curve]	–
CCN(CC)C(=O)CN1C(=O)C2(OCC(C)(C)CO2)c2ccccc21	35.3	4.11 µM [rising, partial curve]	–
OCCNc1nc(N2CCN(Cc3ccccc3)CC2)nc2ccccc12	107	20.6 µM [rising, partial curve]	0.731 µM [rising, partial curve]
